Assay results from patent publication US20080269163A1, “Methods and Compositions for Protecting Cells from Ultrasound-Mediated Cytolysis” (priority 2004, published 2008).

Test system: carbon-centered radicals
Experiment: ESR spin trapping with DBNBS after sonolysis of cell suspension
Details: HGP 5 mM
Procedure: Tertiary carbon-centered radicals are labeled 1, secondary carbon-centered radicals are labeled 2. Primary carbon-centered radicals are labeled 3. Conditions of sonolysis: frequency=1.057 MHz; time=15 seconds, power=60 W, argon-saturated solutions, temperature=25° C.
Electron Spin Resonance (i.e., ESR or EPR) Measurements: cell suspensions (1 ml) with or without HGP (5 mM) were sonicated in the presence of DBNBS (3 mg/ml), which is effective at spin trapping carbon-centered radicals. Prior to sonolysis, the sample solution containing DBNBS was placed in the pyrex tube and sealed from the atmosphere using a “suba seal” (supplied by Aldrich). The sample was bubbled with argon gas through a needle for 5 minutes. The needle was raised to just above the sample solution, allowing argon gas to pass over the top of the cell suspension during sonolysis (1.057 MHz, p=60 W for 15 seconds). Purging the suspension with argon removes oxygen, thereby avoiding the formation of organic peroxyl radicals that cannot be spin trapped by DBNBS. Immediately following sonolysis, the sample was transferred into an ESR flat quartz cell. The ESR spectra were recorded on a Varian E-9X-band spectrometer with 100 kHz modulation frequency. The typical instrument settings were: modulation amplitude 1 G, time constant 0.128 s, scan speed 0.83 G s^−1.

SMILES: CCCCCCO[C@@H]1O[C@H](CO)[C@@H](O)[C@H](O)[C@H]1O [HGP, hexyl-β-D-Glucopyranoside]
- carbon-centered radical yield relative to sonolysis in the absence of HGP: two times higher
- total carbon-centered radical yield (1.057 MHz, 60 W, 15 seconds, argon, DBNBS 3 mg/ml): 1.6 µM
